Assay results from publication PMC12124498.
These are yes or no findings as the source states them, for the method shown. Binding seen in cells or lysates may run through a third protein. A yes stands for co-enrichment or nearness to the bait. Other partners may have been found.

Protein sequences, listed by entry. Tags and fused reporters are not part of them.
UniProt P26368: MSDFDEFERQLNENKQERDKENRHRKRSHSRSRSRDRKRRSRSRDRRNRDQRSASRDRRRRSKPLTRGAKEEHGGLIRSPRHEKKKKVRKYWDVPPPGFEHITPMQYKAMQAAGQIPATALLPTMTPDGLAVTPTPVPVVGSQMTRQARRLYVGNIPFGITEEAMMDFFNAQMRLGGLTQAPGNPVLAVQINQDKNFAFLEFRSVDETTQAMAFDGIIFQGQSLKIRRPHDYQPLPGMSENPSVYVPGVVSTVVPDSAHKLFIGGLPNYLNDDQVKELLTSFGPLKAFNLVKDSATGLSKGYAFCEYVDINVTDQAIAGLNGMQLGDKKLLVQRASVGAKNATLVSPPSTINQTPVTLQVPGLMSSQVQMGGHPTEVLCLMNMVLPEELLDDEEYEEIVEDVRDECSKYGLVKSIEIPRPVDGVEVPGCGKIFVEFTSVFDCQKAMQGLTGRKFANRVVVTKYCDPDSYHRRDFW

B1: FDFT1 (protein, UniProt P37268 1-417)
chain: MEFVKCLGHPEEFYNLVRFRIGGKRKVMPKMDQDSLSSSLKTCYKYLNQTSRSFAAVIQALDGEMRNAVCIFYLVLRALDTLEDDMTISVEKKVPLLHNFHSFLYQPDWRFMESKEKDRQVLEDFPTISLEFRNLAEKYQTVIADICRRMGIGMAEFLDKHVTSEQEWDKYCHYVAGLVGIGLSRLFSASEFEDPLVGEDTERANSMGLFLQKTNIIRDYLEDQQGGREFWPQEVWSRYVKKLGDFAKPENIDLAVQCLNELITNALHHIPDVITYLSRLRNQSVFNFCAIPQVMAIATLAACYNNQQVFKGAVKIRKGQAVTLMMDATNMPAVKAIIYQYMEEIYHRIPDSDPSSSKTRQIISTIRTQNLPNCQLISRSHYSPIYLSFVMLLAALSWQYLTTLSQVTEDYVQTGEH
B2: HSD17B4 (protein, UniProt P51659 1-736)
chain: MGSPLRFDGRVVLVTGAGAGLGRAYALAFAERGALVVVNDLGGDFKGVGKGSLAADKVVEEIRRRGGKAVANYDSVEEGEKVVKTALDAFGRIDVVVNNAGILRDRSFARISDEDWDIIHRVHLRGSFQVTRAAWEHMKKQKYGRIIMTSSASGIYGNFGQANYSAAKLGLLGLANSLAIEGRKSNIHCNTIAPNAGSRMTQTVMPEDLVEALKPEYVAPLVLWLCHESCEENGGLFEVGAGWIGKLRWERTLGAIVRQKNHPMTPEAVKANWKKICDFENASKPQSIQESTGSIIEVLSKIDSEGGVSANHTSRATSTATSGFAGAIGQKLPPFSYAYTELEAIMYALGVGASIKDPKDLKFIYEGSSDFSCLPTFGVIIGQKSMMGGGLAEIPGLSINFAKVLHGEQYLELYKPLPRAGKLKCEAVVADVLDKGSGVVIIMDVYSYSEKELICHNQFSLFLVGSGGFGGKRTSDKVKVAVAIPNRPPDAVLTDTTSLNQAALYRLSGDWNPLHIDPNFASLAGFDKPILHGLCTFGFSARRVLQQFADNDVSRFKAIKARFAKPVYPGQTLQTEMWKEGNRIHFQTKVQETGDIVISNAYVDLAPTSGTSAKTPSEGGKLQSTFVFEEIGRRLKDIGPEVVKKVNAVFEWHITKGGNIGAKWTIDLKSGSGKVYQGPAKGAADTTIILSDEDFMEVVLGKLDPQKAFFSGRLKARGNIMLSQKLQMILKDYAKL
B3: NACC1 (protein, UniProt Q96RE7 1-527)
chain: MAQTLQMEIPNFGNSILECLNEQRLQGLYCDVSVVVKGHAFKAHRAVLAASSSYFRDLFNNSRSAVVELPAAVQPQSFQQILSFCYTGRLSMNVGDQFLLMYTAGFLQIQEIMEKGTEFFLKVSSPSCDSQGLHAEEAPSSEPQSPVAQTSGWPACSTPLPLVSRVKTEQQESDSVQCMPVAKRLWDSGQKEAGGGGNGSRKMAKFSTPDLAANRPHQPPPPQQAPVVAAAQPAVAAGAGQPAGGVAAAGGVVSGPSTSERTSPGTSSAYTSDSPGSYHNEEDEEEDGGEEGMDEQYRQICNMYTMYSMMNVGQTAEKVEALPEQVAPESRNRIRVRQDLASLPAELINQIGNRCHPKLYDEGDPSEKLELVTGTNVYITRAQLMNCHVSAGTRHKVLLRRLLASFFDRNTLANSCGTGIRSSTNDPRRKPLDSRVLHAVKYYCQNFAPNFKESEMNAIAADMCTNARRVVRKSWMPKVKVLKAEDDAYTTFISETGKIEPDMMGVEHGFETASHEGEAGPSAEALQ
B4: DARS (protein, UniProt P14868 1-501)
chain: MPSASASRKSQEKPREIMDAAEDYAKERYGISSMIQSQEKPDRVLVRVRDLTIQKADEVVWVRARVHTSRAKGKQCFLVLRQQQFNVQALVAVGDHASKQMVKFAANINKESIVDVEGVVRKVNQKIGSCTQQDVELHVQKIYVISLAEPRLPLQLDDAVRPEAEGEEEGRATVNQDTRLDNRVIDLRTSTSQAVFRLQSGICHLFRETLINKGFVEIQTPKIISAASEGGANVFTVSYFKNNAYLAQSPQLYKQMCICADFEKVFSIGPVFRAEDSNTHRHLTEFVGLDIEMAFNYHYHEVMEEIADTMVQIFKGLQERFQTEIQTVNKQFPCEPFKFLEPTLRLEYCEALAMLREAGVEMGDEDDLSTPNEKLLGHLVKEKYDTDFYILDKYPLAVRPFYTMPDPRNPKQSNSYDMFMRGEEILSGAQRIHDPQLLTERALHHGIDLEKIKAYIDSFRFGAPPHAGGGIGLERVTMLFLGLHNVRQTSMFPRDPKRLTP
B5: NUDCD1 (protein, UniProt Q96RS6 1-583)
chain: MEVAANCSLRVKRPLLDPRFEGYKLSLEPLPCYQLELDAAVAEVKLRDDQYTLEHMHAFGMYNYLHCDSWYQDSVYYIDTLGRIMNLTVMLDTALGKPREVFRLPTDLTACDNRLCASIHFSSSTWVTLSDGTGRLYVIGTGERGNSASEKWEIMFNEELGDPFIIIHSISLLNAEEHSIATLLLRIEKEELDMKGSGFYVSLEWVTISKKNQDNKKYEIIKRDILRGKSVPHYAAIEPDGNGLMIVSYKSLTFVQAGQDLEENMDEDISEKIKEPLYYWQQTEDDLTVTIRLPEDSTKEDIQIQFLPDHINIVLKDHQFLEGKLYSSIDHESSTWIIKESNSLEISLIKKNEGLTWPELVIGDKQGELIRDSAQCAAIAERLMHLTSEELNPNPDKEKPPCNAQELEECDIFFEESSSLCRFDGNTLKTTHVVNLGSNQYLFSVIVDPKEMPCFCLRHDVDALLWQPHSSKQDDMWEHIATFNALGYVQASKRDKKFFACAPNYSYAALCECLRRVFIYRQPAPMSTVLYNRKEGRQVGQVAKQQVASLETNDPILGFQATNERLFVLTTKNLFLIKVNTEN
B6: OSTC (protein, UniProt Q9NRP0 1-149)
chain: METLYRVPFLVLECPNLKLKKPPWLHMPSAMTVYALVVVSYFLITGGIIYDVIVEPPSVGSMTDEHGHQRPVAFLAYRVNGQYIMEGLASSFLFTMGGLGFIILDRSNAPNIPKLNRFLLLFIGFVCVLLSFFMARVFMRMKLPGYLMG
B7: RDH11 (protein, UniProt Q8TC12 1-318)
chain: MVELMFPLLLLLLPFLLYMAAPQIRKMLSSGVCTSTVQLPGKVVVVTGANTGIGKETAKELAQRGARVYLACRDVEKGELVAKEIQTTTGNQQVLVRKLDLSDTKSIRAFAKGFLAEEKHLHVLINNAGVMMCPYSKTADGFEMHIGVNHLGHFLLTHLLLEKLKESAPSRIVNVSSLAHHLGRIHFHNLQGEKFYNAGLAYCHSKLANILFTQELARRLKGSGVTTYSVHPGTVQSELVRHSSFMRWMWWLFSFFIKTPQQGAQTSLHCALTEGLEILSGNHFSDCHVAWVSAQARNETIARRLWDVSCDLLGLPID
B8: STT3A (protein, UniProt P46977 1-705)
chain: MTKFGFLRLSYEKQDTLLKLLILSMAAVLSFSTRLFAVLRFESVIHEFDPYFNYRTTRFLAEEGFYKFHNWFDDRAWYPLGRIIGGTIYPGLMITSAAIYHVLHFFHITIDIRNVCVFLAPLFSSFTTIVTYHLTKELKDAGAGLLAAAMIAVVPGYISRSVAGSYDNEGIAIFCMLLTYYMWIKAVKTGSICWAAKCALAYFYMVSSWGGYVFLINLIPLHVLVLMLTGRFSHRIYVAYCTVYCLGTILSMQISFVGFQPVLSSEHMAAFGVFGLCQIHAFVDYLRSKLNPQQFEVLFRSVISLVGFVLLTVGALLMLTGKISPWTGRFYSLLDPSYAKNNIPIIASVSEHQPTTWSSYYFDLQLLVFMFPVGLYYCFSNLSDARIFIIMYGVTSMYFSAVMVRLMLVLAPVMCILSGIGVSQVLSTYMKNLDISRPDKKSKKQQDSTYPIKNEVASGMILVMAFFLITYTFHSTWVTSEAYSSPSIVLSARGGDGSRIIFDDFREAYYWLRHNTPEDAKVMSWWDYGYQITAMANRTILVDNNTWNNTHISRVGQAMASTEEKAYEIMRELDVSYVLVIFGGLTGYSSDDINKFLWMVRIGGSTDTGKHIKENDYYTPTGEFRVDREGSPVLLNCLMYKMCYYRFGQVYTEAKRPPGFDRVRNAEIGNKDFELDVLEEAYTTEHWLVRIYKVKDLDNRGLSRT
B9: TMED9 (protein, UniProt Q9BVK6 38-235)
chain: LYFHIGETEKKCFIEEIPDETMVIGNYRTQLYDKQREEYQPATPGLGMFVEVKDPEDKVILARQYGSEGRFTFTSHTPGEHQICLHSNSTKFSLFAGGMLRVHLDIQVGEHANDYAEIAAKDKLSELQLRVRQLVEQVEQIQKEQNYQRWREERFRQTSESTNQRVLWWSILQTLILVAIGVWQMRHLKSFFEAKKLV
B10: FKBP4 (protein, UniProt Q02790 1-459)
chain: MTAEEMKATESGAQSAPLPMEGVDISPKQDEGVLKVIKREGTGTEMPMIGDRVFVHYTGWLLDGTKFDSSLDRKDKFSFDLGKGEVIKAWDIAIATMKVGEVCHITCKPEYAYGSAGSPPKIPPNATLVFEVELFEFKGEDLTEEEDGGIIRRIQTRGEGYAKPNEGAIVEVALEGYYKDKLFDQRELRFEIGEGENLDLPYGLERAIQRMEKGEHSIVYLKPSYAFGSVGKEKFQIPPNAELKYELHLKSFEKAKESWEMNSEEKLEQSTIVKERGTVYFKEGKYKQALLQYKKIVSWLEYESSFSNEEAQKAQALRLASHLNLAMCHLKLQAFSAAIESCNKALELDSNNEKGLFRRGEAHLAVNDFELARADFQKVLQLYPNNKAAKTQLAVCQQRIRRQLAREKKLYANMFERLAEEENKAKAEASSGDHPTDTEMKEEQKSNTAGSQSQVETEA
B11: HNRNPDL (protein, UniProt O14979 1-420)
chain: MEVPPRLSHVPPPLFPSAPATLASRSLSHWRPRPPRQLAPLLPSLAPSSARQGARRAQRHVTAQQPSRLAGGAAIKGGRRRRPDLFRRHFKSSSIQRSAAAAAATRTARQHPPADSSVTMEDMNEYSNIEEFAEGSKINASKNQQDDGKMFIGGLSWDTSKKDLTEYLSRFGEVVDCTIKTDPVTGRSRGFGFVLFKDAASVDKVLELKEHKLDGKLIDPKRAKALKGKEPPKKVFVGGLSPDTSEEQIKEYFGAFGEIENIELPMDTKTNERRGFCFITYTDEEPVKKLLESRYHQIGSGKCEIKVAQPKEVYRQQQQQQKGGRGAAAGGRGGTRGRGRGQGQNWNQGFNNYYDQGYGNYNSAYGGDQNYSGYGGYDYTGYNYGNYGYGQGYADYSGQQSTYGKASRGGGNHQNNYQPY
B12: TECR (protein, UniProt Q9NZ01 1-308)
chain: MKHYEVEILDAKTREKLCFLDKVEPHATIAEIKNLFTKTHPQWYPARQSLRLDPKGKSLKDEDVLQKLPVGTTATLYFRDLGAQISWVTVFLTEYAGPLFIYLLFYFRVPFIYGHKYDFTSSRHTVVHLACICHSFHYIKRLLETLFVHRFSHGTMPLRNIFKNCTYYWGFAAWMAYYINHPLYTPPTYGAQQVKLALAIFVICQLGNFSIHMALRDLRPAGSKTRKIPYPTKNPFTWLFLLVSCPNYTYEVGSWIGFAIMTQCLPVALFSLVGFTQMTIWAKGKHRSYLKEFRDYPPLRMPIIPFLL

What follows are binders tested against U2AF2-TurboID-HA (human) (UniProt P26368) (assay: proximity labelling; U2AF2-TurboID-HA induced with doxycycline for 4 h in pluripotent hiPSC; biotinylated proteins purified on streptavidin magnetic beads, LC-MS with label-free quantification; hits: Log2ΔLFQ >= 2 and p <= 0.05, pluripotent against mesoderm U2AF2-TurboID samples).

Q: B1 was tested. Which binding did it give?
A: Its binding is “binds”.

Q: For B2, which binding is on record?
A: The binding was “binds”.

Q: How did the binding turn out when B3 was run?
A: Its binding is “binds”.

Q: For B4, which binding is on record?
A: The binding was “binds”.

Q: How did the binding turn out when B5 was run?
A: Its binding is “binds”.

Q: For B6, which binding is on record?
A: Its binding is “binds”.

Q: How did the binding turn out when B7 was run?
A: Its binding is “binds”.

Q: Which binding does the source give for B8 here?
A: Its binding is “binds”.

Q: B9 was tested. Which binding did it give?
A: The binding was “binds”.

Q: B10 was tested. Which binding did it give?
A: Its binding is “binds”.

Q: B11 was tested. Which binding did it give?
A: The binding was “binds”.

Q: For B12, which binding is on record?
A: Its binding is “binds”.
